Results from US20210395406A1, “REVERSIBLE CROSS-LINKING SYSTEM FOR POLYVINYLAMINES” (SOLENIS TECHNOLOGIES, L.P., priority 2020, published 2021).

Experiment: Determination of cross-linking time

**Q.** With `O=C1CCN(C(=O)C(=O)N2CCC(=O)CC2)CC1` [Example 1.1, 1,2-bis(4-oxopiperidin-1-yl)ethane-1,2-dione] as the compound, how does the Cross-linking time (polymer 2.1, pH 7, room temperature, molar ratio cross-linker/vinylamine units 0.5 mol %) read?
**A.** Its Cross-linking time is 43 s.

**Q.** What about the Cross-linking time (polymer 2.1, pH 7, room temperature, molar ratio cross-linker/vinylamine units 1.0 mol %) of the same compound?
**A.** The Cross-linking time was 27 s.

**Q.** What about the Cross-linking time (polymer 2.1, pH 7, room temperature, molar ratio cross-linker/vinylamine units 2.0 mol %) of the same compound?
**A.** The Cross-linking time was 12 s.

**Q.** What about the Cross-linking time (polymer 2.2, pH 7, room temperature, molar ratio cross-linker/vinylamine units 1.0 mol %) of the same compound?
**A.** The Cross-linking time was 33 s.

**Q.** And the Cross-linking time (polymer 2.2, pH 7, room temperature, molar ratio cross-linker/vinylamine units 2.0 mol %)?
**A.** The Cross-linking time was 20 s.

**Q.** What about the Cross-linking time (polymer 2.3, pH 7, room temperature, molar ratio cross-linker/vinylamine units 1.0 mol %) of the same compound?
**A.** The Cross-linking time was 68 s.

**Q.** And the Cross-linking time (polymer 2.3, pH 7, room temperature, molar ratio cross-linker/vinylamine units 2.0 mol %)?
**A.** The Cross-linking time was 50 s.
